Data published in US20250263453A1.
Results are given in words; binding and its absence hold for the method and conditions named. Binding seen in cells or lysates may run through a third protein. Some entries that bind do so weakly or less than the wild type.

The chains behind the UniProt entries cited, without tags or fusion partners. Residues count along the entry.
UniProt P08670, residues 2-466: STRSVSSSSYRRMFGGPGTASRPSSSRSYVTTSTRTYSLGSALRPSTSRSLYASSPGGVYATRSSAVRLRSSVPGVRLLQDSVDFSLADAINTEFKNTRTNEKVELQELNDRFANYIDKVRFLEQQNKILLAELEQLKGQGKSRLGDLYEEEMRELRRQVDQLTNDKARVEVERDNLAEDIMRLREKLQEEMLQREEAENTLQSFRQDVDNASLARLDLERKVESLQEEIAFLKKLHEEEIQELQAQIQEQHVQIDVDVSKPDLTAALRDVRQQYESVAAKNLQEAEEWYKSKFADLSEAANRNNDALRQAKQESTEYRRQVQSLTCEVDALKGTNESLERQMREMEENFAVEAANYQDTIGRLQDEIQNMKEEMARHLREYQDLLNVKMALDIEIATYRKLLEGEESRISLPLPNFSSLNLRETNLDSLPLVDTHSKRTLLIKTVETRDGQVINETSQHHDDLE
UniProt P53350, residues 2-603: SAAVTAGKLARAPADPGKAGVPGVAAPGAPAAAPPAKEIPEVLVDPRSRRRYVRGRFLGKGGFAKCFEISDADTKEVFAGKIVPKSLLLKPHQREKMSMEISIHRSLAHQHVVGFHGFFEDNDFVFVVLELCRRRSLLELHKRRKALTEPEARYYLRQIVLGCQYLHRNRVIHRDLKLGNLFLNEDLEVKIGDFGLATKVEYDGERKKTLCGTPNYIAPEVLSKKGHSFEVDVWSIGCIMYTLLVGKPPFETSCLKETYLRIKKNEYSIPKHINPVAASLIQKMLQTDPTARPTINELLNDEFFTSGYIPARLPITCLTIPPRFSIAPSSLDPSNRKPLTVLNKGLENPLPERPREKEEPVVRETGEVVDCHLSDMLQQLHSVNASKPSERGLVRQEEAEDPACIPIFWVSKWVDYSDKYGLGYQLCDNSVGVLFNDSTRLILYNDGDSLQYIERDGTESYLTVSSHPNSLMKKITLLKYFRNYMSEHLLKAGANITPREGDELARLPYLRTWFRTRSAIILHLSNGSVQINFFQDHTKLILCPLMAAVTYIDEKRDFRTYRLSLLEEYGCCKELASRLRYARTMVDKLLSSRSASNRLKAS

How the values were obtained:
[1] = target: vimentin (human) (UniProt P08670); test: co-immunoprecipitation with a PLK1 antibody, NCI-H460 cells treated with 2.5 ng/ml TGF-β
[2] = target: vimentin (human) (UniProt P08670); test: co-immunoprecipitation with a PLK1 antibody, A549 cells treated with 2.5 ng/ml TGF-β
[3] = target: vimentin (human) (UniProt P08670); test: co-immunoprecipitation with a PLK1 antibody and agarose beads, immunoblot; A549 and NCI-H460 cells with or without TGF-β
[4] = target: vimentin (human) (UniProt P08670); test: co-immunoprecipitation, TGF-β-treated lung cancer cells (summary of Example 2)

Measured: binding

PLK1 (polo-like kinase 1) (from UniProt P53350 2-603) (enzyme)
binds: [1] | [2] | [3] | [4]
